Results deposited as PubChem BioAssay AID1259308 (NCATS, 2017).

Test: 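Candidate targets for better recombinant protein yield in mammalian cells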 (primary screen)
Cell system: human HEK293 embryonic kidney cells stably expressing firefly luciferase (HEK-CMV-Luc2-Hygro)
Knock-down reagent: single siRNA against human genes, 0.8 pmol siRNA per well
Timing: 72 h
Detection: 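Reporter luminescence and viable-cell signal on separate replicate plates, given as percent of non-targeting control and median/MAD z-scores, plus per-cell luciferase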
Direction: total luciferase, z-score and total luciferase, % of control: higher = more reporter protein produced
Call rule: 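Active when the median/MAD z-score for overall luciferase is greater than 3; a gene was taken forward for validation with new siRNAs if at least two of its three siRNAs passed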
Calls: active = raised luciferase; inactive = no rise
This is a random part of about 59,000 deposited reagents. In the full data, about 1,510 (2.6%) were called active. 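Calls use total luciferase alone and ignore viability, so some active siRNAs may act by altering cell number.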 Entries without a mark were called inactive. Further read-outs or replicates are left out here. No sequences are given here.

TLN2-AS2 (GeneID 197003) [SID160760681] → total luciferase, z-score: 1.07; total luciferase, % of control: 103
TLN2-AS2 (GeneID 197003) [SID160760682] → total luciferase, z-score: -1.18; total luciferase, % of control: 58.4
TLN2-AS2 (GeneID 197003) [SID160760683] → total luciferase, z-score: 1.28; total luciferase, % of control: 107
RPP25L (GeneID 138716) [SID160757612] → total luciferase, z-score: 1.27; total luciferase, % of control: 107
RPP25L (GeneID 138716) [SID160757613] → total luciferase, z-score: 0.738; total luciferase, % of control: 96.6
RPP25L (GeneID 138716) [SID160757614] → total luciferase, z-score: -0.677; total luciferase, % of control: 68.4
CLBA1 (GeneID 122616) [SID160755985] → total luciferase, z-score: 0.778; total luciferase, % of control: 97.4
CLBA1 (GeneID 122616) [SID160755986] → total luciferase, z-score: 2.45; total luciferase, % of control: 131
CLBA1 (GeneID 122616) [SID160755987] → total luciferase, z-score: 1.26; total luciferase, % of control: 107
SLAIN1 (GeneID 122060) [SID160755961] → total luciferase, z-score: 0.216; total luciferase, % of control: 86.2
SLAIN1 (GeneID 122060) [SID160755962] → total luciferase, z-score: -0.838; total luciferase, % of control: 65.2
SLAIN1 (GeneID 122060) [SID160755963] → total luciferase, z-score: 1.59; total luciferase, % of control: 114

Ordered by “total luciferase, % of control” (descending): some entries from above
CLBA1 (GeneID 122616) [SID160755987] → total luciferase, z-score: 1.26; total luciferase, % of control: 107
SLAIN1 (GeneID 122060) [SID160755961] → total luciferase, z-score: 0.216; total luciferase, % of control: 86.2
